Results on 7 molecules are retold here after patent US12723078.

The chains behind the UniProt entries cited, without tags or fusion partners. Where a name states a change or a piece, a line headed by the entry shows the natural chain unless it says otherwise. Residues count along the entry.
UniProt Q8NHL6: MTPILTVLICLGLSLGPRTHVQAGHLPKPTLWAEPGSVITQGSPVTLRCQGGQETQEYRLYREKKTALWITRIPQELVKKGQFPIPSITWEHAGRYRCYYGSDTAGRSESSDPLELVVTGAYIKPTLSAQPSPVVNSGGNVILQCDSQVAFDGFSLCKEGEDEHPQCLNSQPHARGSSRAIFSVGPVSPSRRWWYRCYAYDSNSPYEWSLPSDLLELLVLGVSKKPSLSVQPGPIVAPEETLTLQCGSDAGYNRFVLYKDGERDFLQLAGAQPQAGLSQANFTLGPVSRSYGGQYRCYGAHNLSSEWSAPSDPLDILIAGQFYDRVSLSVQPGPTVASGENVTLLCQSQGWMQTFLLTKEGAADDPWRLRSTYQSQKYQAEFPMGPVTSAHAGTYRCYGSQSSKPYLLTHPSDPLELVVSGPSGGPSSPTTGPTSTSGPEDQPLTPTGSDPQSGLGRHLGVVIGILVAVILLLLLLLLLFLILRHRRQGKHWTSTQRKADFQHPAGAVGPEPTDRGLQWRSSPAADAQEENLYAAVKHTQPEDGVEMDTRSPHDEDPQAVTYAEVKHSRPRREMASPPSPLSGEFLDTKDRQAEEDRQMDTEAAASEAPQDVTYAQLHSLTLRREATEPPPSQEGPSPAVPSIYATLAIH
UniProt A6NI73, residues 42-268: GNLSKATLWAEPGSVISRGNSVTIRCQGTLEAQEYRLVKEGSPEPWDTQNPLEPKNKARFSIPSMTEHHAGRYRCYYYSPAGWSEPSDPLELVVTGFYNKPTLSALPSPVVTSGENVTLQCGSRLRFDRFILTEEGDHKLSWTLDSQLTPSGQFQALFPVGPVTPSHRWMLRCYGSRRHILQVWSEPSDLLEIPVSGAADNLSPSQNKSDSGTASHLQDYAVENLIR
UniProt Q8N149, residues 24-449: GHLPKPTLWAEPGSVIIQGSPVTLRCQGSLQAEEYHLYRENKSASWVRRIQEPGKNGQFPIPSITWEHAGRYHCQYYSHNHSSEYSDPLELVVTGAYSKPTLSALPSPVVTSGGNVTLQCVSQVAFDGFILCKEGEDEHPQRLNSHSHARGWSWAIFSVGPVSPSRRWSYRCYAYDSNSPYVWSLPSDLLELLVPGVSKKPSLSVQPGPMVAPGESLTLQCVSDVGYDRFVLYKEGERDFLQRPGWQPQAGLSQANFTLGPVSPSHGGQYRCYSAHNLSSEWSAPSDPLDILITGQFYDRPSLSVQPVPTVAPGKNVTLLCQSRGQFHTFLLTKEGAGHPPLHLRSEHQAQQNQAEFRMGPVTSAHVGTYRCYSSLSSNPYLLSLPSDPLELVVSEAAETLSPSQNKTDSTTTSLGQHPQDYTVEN
UniProt Q6PI73, residues 24-447: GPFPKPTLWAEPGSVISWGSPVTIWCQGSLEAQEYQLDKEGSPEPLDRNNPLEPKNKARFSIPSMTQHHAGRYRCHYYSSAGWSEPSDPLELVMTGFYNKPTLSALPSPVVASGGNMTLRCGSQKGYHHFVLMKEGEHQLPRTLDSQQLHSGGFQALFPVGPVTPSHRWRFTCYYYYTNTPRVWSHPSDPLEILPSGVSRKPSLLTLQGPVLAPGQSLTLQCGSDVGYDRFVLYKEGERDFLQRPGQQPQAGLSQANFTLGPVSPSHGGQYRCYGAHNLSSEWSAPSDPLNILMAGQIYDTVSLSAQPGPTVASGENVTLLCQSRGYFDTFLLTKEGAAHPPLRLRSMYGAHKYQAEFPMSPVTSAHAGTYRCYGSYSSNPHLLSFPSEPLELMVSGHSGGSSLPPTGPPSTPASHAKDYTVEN
UniProt Q8N423, residues 22-460: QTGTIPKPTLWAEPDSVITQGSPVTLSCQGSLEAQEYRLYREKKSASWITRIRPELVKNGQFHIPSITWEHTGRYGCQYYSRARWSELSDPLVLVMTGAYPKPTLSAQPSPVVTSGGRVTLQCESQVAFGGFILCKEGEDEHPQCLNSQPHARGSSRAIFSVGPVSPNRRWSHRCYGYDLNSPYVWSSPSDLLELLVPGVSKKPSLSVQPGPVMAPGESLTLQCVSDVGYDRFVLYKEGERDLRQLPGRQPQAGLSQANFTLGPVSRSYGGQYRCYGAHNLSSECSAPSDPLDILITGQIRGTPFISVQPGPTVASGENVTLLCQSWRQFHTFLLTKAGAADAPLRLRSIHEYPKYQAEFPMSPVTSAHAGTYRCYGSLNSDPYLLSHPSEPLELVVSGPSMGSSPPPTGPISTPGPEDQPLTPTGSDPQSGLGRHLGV
UniProt P59901, residues 24-446: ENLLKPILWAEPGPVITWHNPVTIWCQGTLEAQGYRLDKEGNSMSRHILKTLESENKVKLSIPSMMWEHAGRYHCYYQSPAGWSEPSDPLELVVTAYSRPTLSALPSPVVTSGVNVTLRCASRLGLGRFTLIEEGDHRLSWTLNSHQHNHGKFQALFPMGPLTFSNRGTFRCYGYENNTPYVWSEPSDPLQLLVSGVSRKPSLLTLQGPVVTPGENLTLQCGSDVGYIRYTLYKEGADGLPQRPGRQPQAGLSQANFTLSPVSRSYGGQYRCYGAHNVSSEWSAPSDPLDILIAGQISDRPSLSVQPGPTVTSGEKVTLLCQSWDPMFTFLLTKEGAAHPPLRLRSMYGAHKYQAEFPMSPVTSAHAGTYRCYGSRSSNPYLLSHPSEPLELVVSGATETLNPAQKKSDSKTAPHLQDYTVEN
UniProt Q8NHJ6, residues 22-259: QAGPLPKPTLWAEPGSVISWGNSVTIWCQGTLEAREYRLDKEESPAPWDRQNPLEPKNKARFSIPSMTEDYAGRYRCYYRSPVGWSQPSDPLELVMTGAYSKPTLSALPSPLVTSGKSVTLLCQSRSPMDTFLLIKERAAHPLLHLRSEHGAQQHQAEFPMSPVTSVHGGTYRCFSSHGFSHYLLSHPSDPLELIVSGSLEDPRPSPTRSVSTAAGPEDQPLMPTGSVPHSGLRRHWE
UniProt Q8N6C8, residues 24-439: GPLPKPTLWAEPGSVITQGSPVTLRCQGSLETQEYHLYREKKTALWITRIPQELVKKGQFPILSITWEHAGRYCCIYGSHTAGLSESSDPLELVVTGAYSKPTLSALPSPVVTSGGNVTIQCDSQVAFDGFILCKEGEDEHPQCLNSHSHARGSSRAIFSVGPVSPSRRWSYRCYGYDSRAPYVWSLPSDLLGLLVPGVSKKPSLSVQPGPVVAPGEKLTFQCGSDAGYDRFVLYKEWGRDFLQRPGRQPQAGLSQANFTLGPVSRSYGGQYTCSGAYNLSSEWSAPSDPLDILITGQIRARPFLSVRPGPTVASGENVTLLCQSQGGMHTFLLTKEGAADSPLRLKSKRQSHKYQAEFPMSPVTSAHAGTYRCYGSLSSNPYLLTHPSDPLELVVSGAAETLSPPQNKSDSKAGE

The chains are these.
B1: Rab-VH & Hu-VL (antibody, V domains shown)
VH: QSLEESEGGLVKPGGTLTLTCTASGFSFSSSYCMCWVRQAPGKGLELIACIYTDSSGATYYASWAKGRFTISKSSSTTITLQMTSLTAADTATYFCARGWDYEDPGYTDTTYFSLWGPGTLVTVSS
VL: DIQLTQSPSFLSASVGDRVTITCQASQTIYTNLAWYQQKPGKAPKLLIYAASTLASGVPSRFSGSGSGTEFTLTISSLQPEDFATYYCQSYYGSSTTGNGFGGGTKVEIK
B2: Hu B1-176-LALAPG (antibody, V domains shown)
VH: EVQLVESGGGLVQPGGSLRLSCAASGFSFSSSYCMCWVRQAPGKGLELVSCIYTDSSGATYYASWAKGRFTISRHNSKNTLYLQMNSLRAEDTAVYYCARGWDYEDPGYTDTTYFSLWGRGTLVTVSS
VL: B1 VL
B3: B1-#3 (antibody, V domains shown)
VH: QSLEESEGDLVKPEGSLTLTCKASGFDFSSDAMCWVRQAPGKGLEWIGCIYNGDEITDHASWAKGRFTISKTSPTTVTLQMTSLTVADTATYFCARAVYSDGGAGYPYMYGMDLWGPGTLVTVSS
VL: ELDMTQTPASVEAAVGGTVTIKCQASQNIYSYLVWYQQKPGQPPKLLISKASTLASGVSSRFKGSGSGTEFTLTINDLECADAATYYCQTNYFSSTSHFGVFTFGGGTELEIK
B4: B1-#190 (antibody, V domains shown)
VH: QEQLKESGGDLVKPEGSLTLTCTASGFSFSSDYWVCWVRQAPGKGPEWIGCIYTGDDDTYYASWAKGRFTISKTSSTTVTLEVTSLTAADTATYFCARGLTIGTAELYFWGPGTVVTVSS
VL: ELVLTQTPSPVSAAVGGTVTINCQASQSISNELSWYQQKPGQPPKLLIYLASTLDSGVPSRFKGSGSGTQFTLTISDLECADAATYYCQSHYYGGSSDYGWAFGGGTEVVVK
B5: B1-#204 (antibody, V domains shown)
VH: B1 VH with L3V, E4K, E7G
VL: ELDMTQTPSSVEAAVGGTVTIKCQASQTIYTNLAWYQQKPGQPPNLLIYAASTLASGVSSRFKGSGSGTEFTLTISDLECADAATYYCQSYYGSSTTGNGFGGGTEVEIN
B6: B1-#5 (antibody, V domains shown)
VH: EQSLEESGGDLVKPEGSLTLTCTASELSFSSAYYMCWVRQAPGKGLEWIGCIYSGDGDTYYANWAKGRFTISKTSSTTVTLQMTSLTDADTATYFCARALDSHYSSFDLWGPGTLVTISS
VL: ELDMTQTPSSVSAAVGDTVTIKCQASQSIYRYLAWYQQKPGQRPSLLIYYGSDLASGVPSRFSGSGSGTEFTLTISDLECADAASYYCQTTYDDYHNGWAFGGGTNVEIN
B7: Hu B1-176-N297A (antibody, V domains shown)
VH: B2 VH
VL: B1 VL

Changes are numbered by the printed parent chain. Names and notes keep the numbering of the source. These are yes or no findings as the source states them, for the method shown. Some entries that bind do so weakly or less than the wild type.

The first assay has as its target recombinant human LILRB1 protein (human) (UniProt Q8NHL6). Briefly: ELISA. Background: In an ELISA, binding on a coated surface is turned into a signal by an enzyme label.
With B1, the binding entry is reported as “binds”.

In the case of B2, the binding entry is on record as “binds”.

The target of another assay is LILRB3. Briefly: Octet RED96, cross-reactivity table. Background: BLI is a label-free optical method that tracks binding on a fibre tip over time.
For B3, the binding result is “no binding (tested: not given)”.

B4: the binding result is “no binding (tested: not given)”.

With B5, the binding result is reported as “no binding (tested: not given)”.

Turning to B6, the binding entry is “no binding (tested: not given)”.

Another assay has as its target LILRA5 (human) (UniProt A6NI73). Briefly: Octet RED96, cross-reactivity table.
For B3, the binding entry is “no binding (tested: not given)”.

Turning to B4, the binding result is “no binding (tested: not given)”.

With B5, the binding entry is listed as “no binding (tested: not given)”.

For the molecule B6, the binding result is “no binding (tested: not given)”.

A further assay deals with LILRA2 (human) (UniProt Q8N149). Briefly: Octet RED96, cross-reactivity table.
On to B3, for which the binding entry is listed as “no binding (tested: not given)”.

On to B4, for which the binding result is recorded as “no binding (tested: not given)”.

Take B5: the binding result is on record as “no binding (tested: not given)”.

Regarding B6, the binding result is given as “no binding (tested: not given)”.

In another assay the target is LILRA6 (human) (UniProt Q6PI73). The assay can be described thus: Octet RED96, cross-reactivity table.
B3: the binding result was “no binding (tested: not given)”.

Regarding B4, the binding result is reported as “no binding (tested: not given)”.

As to B5, the binding entry is given as “no binding (tested: not given)”.

B6: the binding result is “no binding (tested: not given)”.

A further assay concerns the target LILRB2 (human) (UniProt Q8N423). Briefly: Octet RED96, cross-reactivity table.
For B3, the binding entry is “no binding (tested: not given)”.

As for B4, the binding result is “no binding (tested: not given)”.

Regarding B5, the binding result is “no binding (tested: not given)”.

Regarding B6, the binding result is given as “no binding (tested: not given)”.

Another assay deals with LILRA4 (human) (UniProt P59901). The assay can be described thus: Octet RED96, cross-reactivity table.
Consider B3, for which the binding entry is “no binding (tested: not given)”.

For B4, the binding result is “no binding (tested: not given)”.

For the molecule B5, the binding entry is recorded as “no binding (tested: not given)”.

For the molecule B6, the binding result is given as “no binding (tested: not given)”.

In the next assay the target is LILRB4 (human) (UniProt Q8NHJ6). The assay can be described thus: Octet RED96, cross-reactivity table.
For the molecule B3, the binding entry was “no binding (tested: not given)”.

Take B4: the binding entry is reported as “no binding (tested: not given)”.

For the molecule B5, the binding entry was “no binding (tested: not given)”.

For B6, the binding result was “no binding (tested: not given)”.

In a further assay the target is LILRB5. Briefly: Octet RED96, cross-reactivity table.
B3: the binding entry is on record as “no binding (tested: not given)”.

For B4, the binding entry was “no binding (tested: not given)”.

With B5, the binding result is recorded as “no binding (tested: not given)”.

Consider B6, for which the binding entry is on record as “no binding (tested: not given)”.

The target in a further assay is LILRA3 (human) (UniProt Q8N6C8). Briefly: Octet RED96, cross-reactivity table.
For the molecule B3, the binding entry is “no binding (tested: not given)”.

For B4, the binding result is listed as “no binding (tested: not given)”.

As for B5, the binding entry is “no binding (tested: not given)”.

Regarding B6, the binding result is listed as “no binding (tested: not given)”.

In the next assay the target is recombinant human LILRB1 protein (human) (UniProt Q8NHL6). The assay can be described thus: Octet RED96 or ELISA.
On to B7, for which the binding entry is recorded as “binds”.

As to B2, the binding result is “binds”.
